The target in this assay is PRMT5-6KR (HEK293T) (UniProt O14744). Nature of the assay: co-IP; Myc IP from HEK293T cells transfected with indicated plasmids; PRMT5 dimer formation; immunoblot.

Protein sequences, listed by entry. Tags and fused reporters are not part of them. Lines headed by an entry give the natural chain unless they say otherwise; changes in a name come on top. Chains listed by the source or under a name are the forms on record and can include a tag or linker.
UniProt O14744: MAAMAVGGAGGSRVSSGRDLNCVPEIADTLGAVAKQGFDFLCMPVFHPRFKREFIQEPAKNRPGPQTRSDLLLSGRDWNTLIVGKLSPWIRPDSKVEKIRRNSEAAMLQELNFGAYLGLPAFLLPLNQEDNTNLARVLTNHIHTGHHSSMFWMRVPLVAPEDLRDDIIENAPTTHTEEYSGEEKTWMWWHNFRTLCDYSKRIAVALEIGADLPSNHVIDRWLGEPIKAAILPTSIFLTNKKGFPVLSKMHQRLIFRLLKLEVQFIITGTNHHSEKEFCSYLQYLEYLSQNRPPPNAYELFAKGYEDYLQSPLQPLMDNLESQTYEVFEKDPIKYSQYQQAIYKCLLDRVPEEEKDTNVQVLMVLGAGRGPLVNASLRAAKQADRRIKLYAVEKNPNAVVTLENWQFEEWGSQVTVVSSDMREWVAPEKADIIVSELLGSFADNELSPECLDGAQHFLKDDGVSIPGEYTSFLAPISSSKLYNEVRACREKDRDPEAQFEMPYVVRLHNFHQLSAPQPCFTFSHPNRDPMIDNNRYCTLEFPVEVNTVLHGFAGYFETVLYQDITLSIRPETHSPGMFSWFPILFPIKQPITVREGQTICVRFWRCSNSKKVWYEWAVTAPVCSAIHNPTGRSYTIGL
PRMT5-6KR (HEK293T) (O14744, form named): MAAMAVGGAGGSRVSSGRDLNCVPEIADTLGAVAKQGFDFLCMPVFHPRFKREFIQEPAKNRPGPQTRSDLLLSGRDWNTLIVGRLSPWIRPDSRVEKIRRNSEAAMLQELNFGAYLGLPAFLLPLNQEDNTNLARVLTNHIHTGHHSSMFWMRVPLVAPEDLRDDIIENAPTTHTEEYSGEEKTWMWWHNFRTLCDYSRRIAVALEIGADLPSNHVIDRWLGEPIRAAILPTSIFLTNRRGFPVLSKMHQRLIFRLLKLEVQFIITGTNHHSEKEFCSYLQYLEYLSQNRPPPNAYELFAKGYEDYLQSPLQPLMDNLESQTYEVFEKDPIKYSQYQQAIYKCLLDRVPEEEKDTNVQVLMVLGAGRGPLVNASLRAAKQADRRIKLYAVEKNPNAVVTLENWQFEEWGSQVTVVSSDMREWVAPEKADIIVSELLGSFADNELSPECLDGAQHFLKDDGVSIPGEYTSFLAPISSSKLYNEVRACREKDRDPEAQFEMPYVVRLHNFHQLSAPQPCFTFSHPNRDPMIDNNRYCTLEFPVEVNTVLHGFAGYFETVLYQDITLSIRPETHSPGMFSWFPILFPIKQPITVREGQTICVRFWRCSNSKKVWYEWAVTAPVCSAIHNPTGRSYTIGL

These are yes or no findings as the source states them, for the method shown. Binding seen in cells or lysates may run through a third protein. Some results given as binding are weak or reduced against the parent protein; the word gives no strength.

As for “PRMT5-6KR (HEK293T) (from UniProt O14744 1-637) (enzyme)”, the binding entry is “binds”.
